In publication PMC8186375:
These are yes or no findings as the source states them, for the method shown. Binding seen in cells or lysates may run through a third protein. Some results given as binding are weak or reduced against the parent protein; the word gives no strength.

Chains of the proteins cited; added tags and fusions are not shown.
UniProt P30153: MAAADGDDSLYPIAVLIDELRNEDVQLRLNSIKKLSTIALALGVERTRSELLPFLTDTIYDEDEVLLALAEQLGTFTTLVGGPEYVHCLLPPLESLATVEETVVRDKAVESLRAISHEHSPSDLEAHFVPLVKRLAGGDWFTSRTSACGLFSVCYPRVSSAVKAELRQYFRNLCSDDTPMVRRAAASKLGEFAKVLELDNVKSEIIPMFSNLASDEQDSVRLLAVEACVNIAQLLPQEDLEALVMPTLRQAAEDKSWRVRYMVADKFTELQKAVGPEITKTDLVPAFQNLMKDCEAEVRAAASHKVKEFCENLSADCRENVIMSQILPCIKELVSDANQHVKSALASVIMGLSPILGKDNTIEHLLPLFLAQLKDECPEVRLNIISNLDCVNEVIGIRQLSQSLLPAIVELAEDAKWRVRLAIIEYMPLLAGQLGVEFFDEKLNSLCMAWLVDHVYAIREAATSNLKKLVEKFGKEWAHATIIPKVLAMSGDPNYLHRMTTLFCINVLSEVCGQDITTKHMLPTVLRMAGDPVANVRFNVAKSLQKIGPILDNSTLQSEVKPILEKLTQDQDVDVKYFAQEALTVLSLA
UniProt P23528: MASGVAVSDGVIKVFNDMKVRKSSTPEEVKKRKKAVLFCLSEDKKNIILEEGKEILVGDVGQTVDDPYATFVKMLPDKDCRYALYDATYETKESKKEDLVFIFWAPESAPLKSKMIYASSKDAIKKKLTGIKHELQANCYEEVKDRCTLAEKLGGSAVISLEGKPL

Target: T1, Peroxiredoxin 1 (human (endogenous in DOK cells and in human OLK tissue)) (UniProt Q06830)
T1 sequence: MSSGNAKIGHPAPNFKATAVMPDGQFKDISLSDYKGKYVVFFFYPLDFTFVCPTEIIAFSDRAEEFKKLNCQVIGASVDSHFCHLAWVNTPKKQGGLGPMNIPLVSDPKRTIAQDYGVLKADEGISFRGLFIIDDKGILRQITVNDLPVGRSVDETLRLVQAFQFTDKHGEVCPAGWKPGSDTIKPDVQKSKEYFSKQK
Assay: proximity ligation; Duolink in situ PLA on sections of human OLK tissues of smokers; primary antibodies against Prx1 and CFL1, TPM3 or PPP2R1A, mouse- or rabbit-derived PLA probes; fluorescence microscopy

Row | Substance | binding
1 | Serine/threonine-protein phosphatase 2A 65 kDa regulatory subunit A alpha isoform (from UniProt P30153 1-589) | binds
2 | Cofilin-1 (from UniProt P23528 1-166) | binds
